Source: PubChem BioAssay AID248 (DTP/NCI, 2004)
The list is a part of this screen's results and no random one: it is rich in T/C values a quarter to a half above the control, in often repeated tests (any T/C) and in doses without a T/C. Further doses and runs are listed elsewhere. T/C is the treated group as % of the vehicle group. Some entries give survivors of the animals treated and no T/C: the source holds a T/C of zero for them, seemingly a mark for toxic or unscored doses. Some doses without a T/C left all or most animals alive at the check, yet need not have been tolerated: survival well below the control is almost never listed, so the zero probably covers shortened survival too. Survivors were counted at the toxicity check, usually on the fifth day, unless a day is given; later deaths do not show. Schedules are NCI's codes, read here as Q, the interval in days (D) or hours (H), X, the number of doses. For survival time, the PubChem record calls one and a half times the control and up active, and a quarter to a half above the control has no call in these data; cut-offs in other NCI protocols can differ. Some T/C values are followed by the survivors on the day toxicity was checked, most often the fifth; without a count, all were alive then. Some entries hold several experiments; their values stand side by side, smallest first. Marks such as (2×) say how often a value occurs here. Some schedules carry Z or #; the key to these is not given.

Tested on: L1210 leukemia ip in BDF1 mice, survival T/C
Test: NCI In Vivo Anticancer Drug Screen. Data for tumor model L1210 Leukemia (intraperitoneal) in B6D2F1 (BDF1) mice
Conditions: T/C endpoint: mean survival time, higher T/C = longer survival

## C1CN1c1nc(N2CC2)nc(N2CC2)n1
dose: 0.05 mg/kg/injection, schedule: Q04DX003 (ip), vehicle: saline
  T/C: 127 and 131 % of control
dose: 0.25 mg/kg/injection, schedule: Q01DX001 (ip), vehicle: saline
  T/C: 132 % of control
dose: 0.25 mg/kg/injection, schedule: Q01DX009 (ip), vehicle: saline, evaluated on day 30
  T/C: 103, 106, 110, 133, 136 % of control
dose: 0.25 mg/kg/injection, schedule: Q01DX009 (ip), vehicle: saline, evaluated on day 40
  T/C: 121 % of control
dose: 0.25 mg/kg/injection, schedule: Q01DX010 (ip), vehicle: saline
  T/C: 115, 121, 129, 145 % of control
dose: 0.25 mg/kg/injection, schedule: Q01DX010 (oral), vehicle: carboxymethylcellulose (CMC)
  T/C: 126 % of control
dose: 0.25 mg/kg/injection, schedule: Q01DX Z (im), vehicle: saline
  T/C: 140 % of control
dose: 0.25 mg/kg/injection, schedule: Q01DX Z (ip), vehicle: saline
  T/C: 87, 139, 143, 151 % of control
dose: 0.25 mg/kg/injection, schedule: Q#A X Z (ip), vehicle: saline
  T/C: 139 % of control
dose: 0.4 mg/kg/injection, schedule: Q01DX009 (ip), vehicle: saline
  T/C: 137 % of control
dose: 0.44 mg/kg/injection, schedule: Q01DX005 (ip), vehicle: saline
  T/C: 125 % of control
dose: 0.5 mg/kg/injection, schedule: Q01DX005 (ip), vehicle: saline
  T/C: 135 % of control
dose: 0.5 mg/kg/injection, schedule: Q01DX009 (ip), vehicle: saline, evaluated on day 30
  T/C: 150 (2×), 156, 161, 196 % of control
dose: 0.5 mg/kg/injection, schedule: Q01DX009 (ip), vehicle: saline, evaluated on day 40
  T/C: 158 % of control
dose: 0.5 mg/kg/injection, schedule: Q01DX009 (sc), vehicle: saline
  T/C: 141 % of control
dose: 0.5 mg/kg/injection, schedule: Q01DX010 (ip), vehicle: saline
  T/C: 159, 169, 170, 175 % of control
dose: 0.5 mg/kg/injection, schedule: Q01DX Z (ip), vehicle: carboxymethylcellulose (CMC)
  T/C: 140 % of control
dose: 0.5 mg/kg/injection, schedule: Q01DX Z (ip), vehicle: saline
  T/C: 89, 160, 165, 185 % of control
dose: 0.5 mg/kg/injection, schedule: Q01DX Z (sc), vehicle: saline
  T/C: 129 % of control
dose: 0.5 mg/kg/injection, schedule: Q04DX003 (ip), vehicle: Klucel (hydroxypropylcellulose) (HPC)
  T/C: 126 % of control
dose: 0.5 mg/kg/injection, schedule: Q04DX003 (ip), vehicle: saline, evaluated on day 20
  T/C: 154 % of control
dose: 0.5 mg/kg/injection, schedule: Q04DX003 (ip), vehicle: saline, evaluated on day 30
  T/C: 104 [5 of 6 alive], 111, 115, 116, 122, 125, 128 % of control (2×)
dose: 0.5 mg/kg/injection, schedule: Q04DX003 (ip), vehicle: saline, evaluated on day 60
  T/C: 120, 132, 139 % of control
dose: 0.57 mg/kg/injection, schedule: Q01DX001 (ip), vehicle: saline
  T/C: 118, 150, 163, 172 % of control
dose: 0.86 mg/kg/injection, schedule: Q01DX001 (ip), vehicle: saline
  T/C: 129 % of control
dose: 0.9 mg/kg/injection, schedule: Q## X003 (ip), vehicle: saline
  T/C: 140 % of control
dose: 0.9 mg/kg/injection, schedule: Q## X004 (ip), vehicle: saline
  T/C: 139 % of control
dose: 0.96 mg/kg/injection, schedule: Q## X024 (ip), vehicle: saline
  T/C: 131 % of control
dose: 1.0 mg/kg/injection, schedule: Q01DX001 (ip), vehicle: saline
  T/C: 127 and 128 % of control
dose: 1.0 mg/kg/injection, schedule: Q01DX005 (ip), vehicle: saline, evaluated on day 40
  T/C: 174 and 245 % of control
dose: 1.0 mg/kg/injection, schedule: Q01DX005 (ip), vehicle: saline, evaluated on day 60
  T/C: 188 and 191 % of control
dose: 1.0 mg/kg/injection, schedule: Q01DX009 (ip), vehicle: saline, evaluated on day 30
  T/C: 95, 97, 101, 128 % of control
dose: 1.0 mg/kg/injection, schedule: Q01DX009 (ip), vehicle: saline, evaluated on day 40
  T/C: 117 % of control
dose: 1.0 mg/kg/injection, schedule: Q01DX009 (sc), vehicle: saline
  T/C: 127 % of control
dose: 1.0 mg/kg/injection, schedule: Q01DX010 (ip), vehicle: saline
  T/C: 88, 96, 103, 159 % of control
dose: 1.0 mg/kg/injection, schedule: Q01DX Z (oral), vehicle: saline
  T/C: 130 % of control
dose: 1.0 mg/kg/injection, schedule: Q04DX003 (ip), vehicle: saline, evaluated on day 20
  T/C: 98 % of control
dose: 1.0 mg/kg/injection, schedule: Q04DX003 (ip), vehicle: saline, evaluated on day 30
  T/C: 119, 146, 152, 157 (2×), 166, 170, 178 % of control
dose: 1.0 mg/kg/injection, schedule: Q04DX003 (ip), vehicle: saline, evaluated on day 45
  T/C: 176 % of control
dose: 1.0 mg/kg/injection, schedule: Q04DX003 (ip), vehicle: saline, evaluated on day 60
  T/C: 146, 151, 154, 169, 200 % of control
dose: 1.0 mg/kg/injection, schedule: Q## X002 (ip), vehicle: saline
  T/C: 132 % of control
dose: 1.0 mg/kg/injection, schedule: Q## X003 (ip), vehicle: saline
  T/C: 129 % of control
dose: 1.0 mg/kg/injection, schedule: Q## X006 (ip), vehicle: saline
  T/C: 134 % of control
dose: 1.0 mg/kg/injection, schedule: Q## X024 (ip), vehicle: saline
  T/C: 131 % of control
dose: 1.3 mg/kg/injection, schedule: Q01DX001 (ip), vehicle: saline, evaluated on day 30
  T/C: 159 and 164 % of control
dose: 1.3 mg/kg/injection, schedule: Q01DX001 (ip), vehicle: saline, run until all animals had died
  T/C: 201 and 258 % of control
dose: 1.4 mg/kg/injection, schedule: Q01DX001 (ip), vehicle: saline
  T/C: 134 % of control
dose: 1.5 mg/kg/injection, schedule: Q03DX Z (ip), vehicle: saline
  T/C: 145 % of control
dose: 1.6 mg/kg/injection, schedule: Q01DX009 (ip), vehicle: saline
  survivor count: 6 of 6
dose: 2.0 mg/kg/injection, schedule: Q01DX001 (ip), vehicle: saline, evaluated on day 30
  T/C: 119 and 177 % of control
dose: 2.0 mg/kg/injection, schedule: Q01DX001 (ip), vehicle: saline, evaluated on day 40
  T/C: 163 and 190 % of control
dose: 2.0 mg/kg/injection, schedule: Q01DX001 (ip), vehicle: saline
  survivor count: 3 of 6
dose: 2.0 mg/kg/injection, schedule: Q01DX001 (ip), vehicle: saline, run until all animals had died
  T/C: 104, 160, 166 % of control [6 of 7 alive]
dose: 2.0 mg/kg/injection, schedule: Q01DX005 (ip), vehicle: saline
  survivor count: 10 of 10
